Results are given in words; binding and its absence hold for the method and conditions named. Binding seen in cells or lysates may run through a third protein. Some entries that bind do so weakly or less than the wild type.
Biological target: Flag-tagged Ephrin A1 (human) (UniProt P20827)
Experiment: co-IP; Flag-Ephrin A1 co-transfected with mCherry-EphA2 or mutants in HEK-293T; lysis in 40 mM Tris, 150 mM NaCl, 1% Triton X-100, 50 mM NaF, 5 mM Na3VO4, 2 mM EDTA; precipitated with anti-Flag antibody and protein A agarose, Western blot

Protein sequences, listed by entry. Tags and fused reporters are not part of them. Lines headed by an entry give the natural chain unless they say otherwise; changes in a name come on top. Chains listed by the source or under a name are the forms on record and can include a tag or linker. Residues count along the entry.
UniProt P20827, residues 19-182: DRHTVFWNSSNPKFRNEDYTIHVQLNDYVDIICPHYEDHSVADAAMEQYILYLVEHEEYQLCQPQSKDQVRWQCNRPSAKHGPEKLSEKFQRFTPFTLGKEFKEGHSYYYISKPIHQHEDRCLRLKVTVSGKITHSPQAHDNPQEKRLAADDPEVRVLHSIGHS
mCherry-tagged full-length EphA2 (P29317, residues 24-976): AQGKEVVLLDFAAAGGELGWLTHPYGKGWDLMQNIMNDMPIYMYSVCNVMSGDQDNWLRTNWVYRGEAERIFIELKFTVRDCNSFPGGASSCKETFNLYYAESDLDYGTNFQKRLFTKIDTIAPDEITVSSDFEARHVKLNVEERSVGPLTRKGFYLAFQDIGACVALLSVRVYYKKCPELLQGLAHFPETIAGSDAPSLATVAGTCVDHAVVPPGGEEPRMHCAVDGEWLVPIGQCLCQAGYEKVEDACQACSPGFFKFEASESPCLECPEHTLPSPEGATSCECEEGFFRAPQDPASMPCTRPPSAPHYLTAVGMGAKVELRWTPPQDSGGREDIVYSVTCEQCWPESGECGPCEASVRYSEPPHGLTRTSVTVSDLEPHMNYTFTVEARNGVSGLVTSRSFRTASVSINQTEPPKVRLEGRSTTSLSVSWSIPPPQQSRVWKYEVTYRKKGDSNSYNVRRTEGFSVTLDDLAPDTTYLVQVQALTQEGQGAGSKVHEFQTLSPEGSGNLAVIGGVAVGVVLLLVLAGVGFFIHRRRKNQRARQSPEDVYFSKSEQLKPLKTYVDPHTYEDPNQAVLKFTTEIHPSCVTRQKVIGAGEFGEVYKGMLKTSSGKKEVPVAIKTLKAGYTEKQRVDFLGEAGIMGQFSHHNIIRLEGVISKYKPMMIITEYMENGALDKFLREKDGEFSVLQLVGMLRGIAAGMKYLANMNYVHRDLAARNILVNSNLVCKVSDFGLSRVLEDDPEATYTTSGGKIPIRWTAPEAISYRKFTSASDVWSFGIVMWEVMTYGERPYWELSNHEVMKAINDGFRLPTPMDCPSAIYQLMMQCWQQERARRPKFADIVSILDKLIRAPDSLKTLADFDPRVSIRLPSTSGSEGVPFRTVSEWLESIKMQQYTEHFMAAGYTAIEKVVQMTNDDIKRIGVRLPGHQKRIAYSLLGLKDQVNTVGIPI
mCherry-tagged EphA2-S897A (Ser897 mutated to alanine) (P29317, form named): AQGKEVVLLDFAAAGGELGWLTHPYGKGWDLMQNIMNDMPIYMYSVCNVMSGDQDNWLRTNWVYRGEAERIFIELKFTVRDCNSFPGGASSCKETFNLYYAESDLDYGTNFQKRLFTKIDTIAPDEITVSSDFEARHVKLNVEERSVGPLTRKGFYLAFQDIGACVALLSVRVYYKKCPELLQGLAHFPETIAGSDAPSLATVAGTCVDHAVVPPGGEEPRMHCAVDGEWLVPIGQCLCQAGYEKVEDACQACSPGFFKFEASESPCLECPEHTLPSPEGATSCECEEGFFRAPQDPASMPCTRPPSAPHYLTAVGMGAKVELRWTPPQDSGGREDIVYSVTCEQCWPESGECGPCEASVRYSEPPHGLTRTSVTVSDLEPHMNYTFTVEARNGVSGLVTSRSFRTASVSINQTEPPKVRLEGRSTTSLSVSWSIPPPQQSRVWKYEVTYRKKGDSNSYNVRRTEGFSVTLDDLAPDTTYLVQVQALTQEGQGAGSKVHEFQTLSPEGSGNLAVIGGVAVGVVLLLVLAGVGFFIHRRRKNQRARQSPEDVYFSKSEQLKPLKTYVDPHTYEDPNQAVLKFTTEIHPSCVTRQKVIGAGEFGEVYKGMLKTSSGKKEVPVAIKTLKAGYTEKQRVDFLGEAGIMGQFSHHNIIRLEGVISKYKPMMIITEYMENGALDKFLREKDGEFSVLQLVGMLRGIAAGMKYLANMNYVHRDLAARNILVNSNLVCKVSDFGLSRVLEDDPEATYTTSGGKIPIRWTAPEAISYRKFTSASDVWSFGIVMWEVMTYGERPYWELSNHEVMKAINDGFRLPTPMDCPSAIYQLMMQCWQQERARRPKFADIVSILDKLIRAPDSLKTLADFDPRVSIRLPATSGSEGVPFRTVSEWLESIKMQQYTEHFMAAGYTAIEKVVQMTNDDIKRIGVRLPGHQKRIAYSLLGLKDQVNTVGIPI

Substance	binding
mCherry-tagged EphA2-S897A (Ser897 mutated to alanine) (from UniProt P29317 24-976) (receptor)	binds
mCherry-tagged full-length EphA2 (from UniProt P29317 24-976) (receptor)	binds

From article PMC8058342
